{"source": "PubChem BioAssay AID2685", "about": "(National Center for Advancing Translational Sciences (NCATS), 2010)", "assay": "qHTS Assay for Lipid Storage Modulators in Drosophila S3 Cells;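 as to cell number change: cells counted by Cell Tracker Red CMTPX staining in the red channel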", "details": "BODIPY lipid droplet fluorescence, 18-24 h; for cell number change: measured here: cell count max response, cells fed with added oleic acid", "outline": "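Drosophila S3 cells got compounds at several concentrations plus oleic acid (400 uM solution). Laser-scanning cytometry with 488 nm excitation read lipid droplets at 500-530 nm and cells at 575-640 nm. Percent activity was relative to 20 uM Triacsin C.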", "key": {"[1]": {"details": "measured here: lipid fluorescence (Fed channel) AC50, cells fed with added oleic acid"}, "[2]": {"details": "measured here: cell number channel AC50, cells fed with added oleic acid"}}, "note": "Some of the results follow. These are further read-outs of the screen, such as a control signal, another cell line or another target. No call is given for them. The list favours compounds with an active or inconclusive main result. Words in brackets tell the shape of the fitted curve; partial curves, single points and poor fits give uncertain potencies."}
{"smiles": "COc1ccc(NC(=O)CSc2nc(N)c(NC(=O)c3cccs3)c(=O)[nH]2)cc1", "values": [{"measurement": "cell number change", "value": -7.21, "unit": "%"}]}
{"smiles": "COc1nnc(-c2ccc(N3CCOCC3)c(NC(=O)c3ccc(C)cc3)c2)c2ccccc12", "values": [{"measurement": "AC50", "setting": "[1]", "value": "6.51 µM [falling, single point]"}]}
{"smiles": "CCCCOc1ccc(C(=O)CCN2CCOCC2)cc1", "values": [{"measurement": "cell number change", "value": -169, "unit": "%"}, {"measurement": "AC50", "setting": "[2]", "value": "23.1 µM [falling, single point]"}, {"measurement": "AC50", "setting": "[1]", "value": "29.1 µM [falling, single point]"}]}
{"smiles": "O=C(O)[C@H](Cc1ccccc1)NC(=O)N1CCOCC1", "values": [{"measurement": "cell number change", "value": -5.45, "unit": "%"}, {"measurement": "AC50", "setting": "[1]", "value": "0.58 µM [falling, partial curve, poor fit]"}]}
{"smiles": "Cc1ccsc1/C=C(\\C#N)C(=O)NCc1cccnc1", "values": [{"measurement": "cell number change", "value": 14.3, "unit": "%"}, {"measurement": "AC50", "setting": "[1]", "value": "2.59 µM [rising, partial curve, poor fit]"}]}
{"smiles": "O=C(OCC(=O)N1CCCCC1)c1n[nH]c(=O)c2ccccc12", "values": [{"measurement": "cell number change", "value": -19.7, "unit": "%"}]}
{"smiles": "CCCCN1c2cc(C)c(O)cc2C(C(=O)OCC)C1C", "note": "(configuration not stated)", "values": [{"measurement": "cell number change", "value": 11.2, "unit": "%"}, {"measurement": "AC50", "setting": "[1]", "value": "4.61 µM [falling, single point]"}]}
{"smiles": "Cc1ccc2nc(-c3ccc(O)cc3)c(Nc3ccc4c(c3)OCCO4)n2c1", "values": [{"measurement": "cell number change", "value": 15.2, "unit": "%"}, {"measurement": "AC50", "setting": "[1]", "value": "0.517 µM [rising, full curve, poor fit]"}]}
{"smiles": "Cc1cc(NS(=O)(=O)c2ccc(NC(=O)NC3CCCCC3)cc2)no1", "values": [{"measurement": "AC50", "setting": "[2]", "value": "0.651 µM [rising, partial curve]"}]}
{"smiles": "Cc1c(C(=O)Nc2nnc(C3CC3)s2)oc2ccccc12", "values": [{"measurement": "cell number change", "value": 9.24, "unit": "%"}, {"measurement": "AC50", "setting": "[2]", "value": "5.17 µM [falling, single point]"}, {"measurement": "AC50", "setting": "[1]", "value": "0.00461 µM [rising, full curve, poor fit]"}]}
{"smiles": "Cc1cccc(C=Nc2ccccc2C(N)=O)c1", "values": [{"measurement": "cell number change", "value": -55.7, "unit": "%"}, {"measurement": "AC50", "setting": "[2]", "value": "29.1 µM [falling, single point]"}]}
{"smiles": "CCOC(=O)c1sc(=S)n(CC)c1NC(=O)CC", "values": [{"measurement": "cell number change", "value": -4.08, "unit": "%"}, {"measurement": "AC50", "setting": "[2]", "value": "6.51 µM [falling, single point]"}]}
{"smiles": "COc1ccc(CCNC(=O)C(C)c2ccc([N+](=O)[O-])cc2)cc1", "note": "(configuration not stated)", "values": [{"measurement": "cell number change", "value": 66.2, "unit": "%"}, {"measurement": "AC50", "setting": "[2]", "value": "29.1 µM [rising, single point]"}, {"measurement": "AC50", "setting": "[1]", "value": "20.6 µM [rising, single point]"}]}
{"smiles": "Cn1c(CNC(=O)c2ccco2)nnc1SCC(=O)Nc1cccc(F)c1", "values": [{"measurement": "cell number change", "value": 25.3, "unit": "%"}]}
{"smiles": "CCNc1oc(-c2ccc(OC)cc2)nc1S(=O)(=O)c1ccc(Br)cc1", "values": [{"measurement": "cell number change", "value": 34.6, "unit": "%"}]}
{"smiles": "O=C1c2ccccc2C(O)N1c1ccc(Cl)cc1", "note": "(configuration not stated)", "values": [{"measurement": "cell number change", "value": 3.69, "unit": "%"}, {"measurement": "AC50", "setting": "[1]", "value": "0.58 µM [rising, full curve, poor fit]"}]}
{"smiles": "CCOC(=O)c1c(NC(C)=O)sc2c1CCC(C=O)=C2Sc1ccccc1", "values": [{"measurement": "cell number change", "value": -18.2, "unit": "%"}, {"measurement": "AC50", "setting": "[2]", "value": "2.31 µM [rising, partial curve, poor fit]"}, {"measurement": "AC50", "setting": "[1]", "value": "3.66 µM [rising, partial curve]"}]}
{"smiles": "COc1ccc(-c2nc(-c3cccs3)c(-c3cccs3)[nH]2)cc1OC", "values": [{"measurement": "AC50", "setting": "[2]", "value": "0.82 µM [rising, full curve]"}, {"measurement": "AC50", "setting": "[1]", "value": "1.46 µM [rising, partial curve]"}]}
{"smiles": "COc1ccccc1N1CCN(C(=O)c2cn(-c3ccccc3)nc2-c2cccnc2)CC1", "values": [{"measurement": "cell number change", "value": -8.86, "unit": "%"}]}
{"smiles": "C/C(=N/NC(=O)CNC(=O)c1ccco1)c1ccc(Cl)cc1", "values": [{"measurement": "cell number change", "value": -8.66, "unit": "%"}, {"measurement": "AC50", "setting": "[1]", "value": "0.13 µM [falling, full curve, poor fit]"}]}
{"smiles": "OCCC1CN(Cc2ccc(-c3ccco3)cc2)CCN1Cc1ccsc1", "note": "(configuration not stated)", "values": [{"measurement": "cell number change", "value": -0.748, "unit": "%"}]}
{"smiles": "CC1COc2ccccc2N1C(=O)c1cccnc1Cl", "note": "(configuration not stated)", "values": [{"measurement": "cell number change", "value": 14.6, "unit": "%"}, {"measurement": "AC50", "setting": "[1]", "value": "0.411 µM [rising, full curve, poor fit]"}]}
{"smiles": "O=C(Cc1cccs1)N/N=C/C=C/c1ccco1", "values": [{"measurement": "cell number change", "value": 0.559, "unit": "%"}, {"measurement": "AC50", "setting": "[1]", "value": "32.6 µM [rising, single point]"}]}
{"smiles": "N#CCSc1nc(N)c(C#N)c(C2CCCCC2)c1C#N", "values": [{"measurement": "cell number change", "value": 18.7, "unit": "%"}, {"measurement": "AC50", "setting": "[1]", "value": "20.6 µM [rising, partial curve, poor fit]"}]}
{"smiles": "CC1CCCC(NC(=O)c2cccc(N3CCCC3=O)c2)C1C", "note": "(configuration not stated)", "values": [{"measurement": "cell number change", "value": 18.7, "unit": "%"}]}
{"smiles": "C=CCn1c(SCC(=O)N(CC)C2CCS(=O)(=O)C2)nc2cc(C(=O)O)ccc2c1=O", "note": "(configuration not stated)", "values": [{"measurement": "cell number change", "value": 22.8, "unit": "%"}]}
{"smiles": "COCCNC(=O)C(=O)Nc1cccc(Br)c1", "values": [{"measurement": "cell number change", "value": 30, "unit": "%"}, {"measurement": "AC50", "setting": "[1]", "value": "20.6 µM [falling, partial curve]"}]}
{"smiles": "COCc1cc(C)nc(SCC(=O)Nc2ccccc2N2CCOCC2)c1C#N", "values": [{"measurement": "AC50", "setting": "[1]", "value": "16.4 µM [falling, partial curve]"}]}
{"smiles": "CCOC(=O)c1cnn(-c2ccc([N+](=O)[O-])cc2)c1N", "values": [{"measurement": "cell number change", "value": -38, "unit": "%"}, {"measurement": "AC50", "setting": "[2]", "value": "18.4 µM [falling, single point]"}]}
{"smiles": "COc1cccc(-c2nnn(CC(=O)O)n2)c1", "values": [{"measurement": "AC50", "setting": "[1]", "value": "5.8 µM [falling, single point]"}]}
{"smiles": "Cc1ccc(Cn2cc(/C=N/Nc3ccc([N+](=O)[O-])cn3)c3ccccc32)cc1", "values": [{"measurement": "cell number change", "value": -11.5, "unit": "%"}, {"measurement": "AC50", "setting": "[1]", "value": "11.6 µM [falling, partial curve]"}]}
{"smiles": "Cc1nn(C)c(N)c1C(O)(c1nccn1C)C(F)(F)F", "note": "(configuration not stated)", "values": [{"measurement": "cell number change", "value": -13, "unit": "%"}, {"measurement": "AC50", "setting": "[1]", "value": "0.0291 µM [falling, full curve, poor fit]"}]}
{"smiles": "O=S(=O)(Nc1ccc(-c2ccc3nncn3n2)cc1)c1ccc(Cl)s1", "values": [{"measurement": "AC50", "setting": "[2]", "value": "6.51 µM [rising, single point]"}]}
